Here are results for six molecules from article PMC4493782.

The chains behind the UniProt entries cited, without tags or fusion partners.
UniProt Q9SJ66: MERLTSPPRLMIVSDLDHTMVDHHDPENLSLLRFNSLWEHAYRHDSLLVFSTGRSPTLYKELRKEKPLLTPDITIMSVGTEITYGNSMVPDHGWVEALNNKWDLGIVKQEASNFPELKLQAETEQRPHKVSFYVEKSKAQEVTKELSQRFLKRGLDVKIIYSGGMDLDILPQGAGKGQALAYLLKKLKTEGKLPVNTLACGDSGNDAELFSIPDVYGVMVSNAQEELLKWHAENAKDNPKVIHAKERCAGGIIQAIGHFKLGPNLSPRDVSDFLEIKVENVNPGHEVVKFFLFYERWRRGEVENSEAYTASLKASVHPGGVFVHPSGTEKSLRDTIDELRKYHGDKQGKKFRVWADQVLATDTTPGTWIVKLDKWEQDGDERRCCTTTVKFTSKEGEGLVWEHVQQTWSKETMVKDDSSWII

For assay [1], the target named is T1, AtSPS5b (At5g20280), sucrose phosphate synthase, fused to the GAL4 DNA-binding domain (Arabidopsis thaliana) (UniProt Q94BT0).
T1 sequence: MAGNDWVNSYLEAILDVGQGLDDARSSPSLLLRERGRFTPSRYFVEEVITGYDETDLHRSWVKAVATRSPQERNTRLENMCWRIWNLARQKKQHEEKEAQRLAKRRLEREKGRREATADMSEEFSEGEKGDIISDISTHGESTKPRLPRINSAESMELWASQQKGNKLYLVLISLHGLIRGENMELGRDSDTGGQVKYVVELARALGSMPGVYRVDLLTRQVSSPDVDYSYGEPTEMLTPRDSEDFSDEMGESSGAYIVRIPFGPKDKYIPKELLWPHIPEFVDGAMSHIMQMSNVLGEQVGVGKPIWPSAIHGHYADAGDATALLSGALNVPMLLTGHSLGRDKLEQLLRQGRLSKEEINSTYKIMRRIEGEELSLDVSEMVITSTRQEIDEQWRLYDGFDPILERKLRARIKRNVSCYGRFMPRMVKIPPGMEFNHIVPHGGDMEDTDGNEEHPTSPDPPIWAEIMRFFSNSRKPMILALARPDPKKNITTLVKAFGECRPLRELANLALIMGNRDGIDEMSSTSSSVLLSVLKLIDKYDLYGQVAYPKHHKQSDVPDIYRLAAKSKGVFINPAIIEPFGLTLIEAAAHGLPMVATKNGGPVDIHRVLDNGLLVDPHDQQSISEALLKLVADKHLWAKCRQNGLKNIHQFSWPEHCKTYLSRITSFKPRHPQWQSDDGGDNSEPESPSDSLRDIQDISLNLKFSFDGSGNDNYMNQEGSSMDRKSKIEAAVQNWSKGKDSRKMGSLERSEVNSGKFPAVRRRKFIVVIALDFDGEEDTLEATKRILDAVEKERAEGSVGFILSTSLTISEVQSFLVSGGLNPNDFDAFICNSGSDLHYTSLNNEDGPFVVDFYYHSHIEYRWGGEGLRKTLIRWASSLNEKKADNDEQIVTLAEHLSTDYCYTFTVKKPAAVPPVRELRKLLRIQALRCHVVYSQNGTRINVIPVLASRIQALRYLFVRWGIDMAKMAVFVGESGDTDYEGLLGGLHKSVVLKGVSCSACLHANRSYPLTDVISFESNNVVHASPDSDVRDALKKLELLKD
Nature of the assay: two-hybrid; ProQuest system, S. cerevisiae MaV203; AtSPS on the GAL4 DNA-binding domain (pDEST32), AtSPP on the GAL4 activation domain (pDEST22); growth on SC-Leu-Trp-His+10 mM 3AT, no growth on 0.2% 5FOA, X-gal colour.

In assay [2] the target is T2, hRLUC-AtSPS (N-terminally tagged Renilla luciferase fusion of AtSPS, At5g20280) (Arabidopsis thaliana) (UniProt Q94BT0).
T2 sequence: T1 sequence
Description: FRET or BRET; in planta BRET in double transgenic Arabidopsis seedlings of the Atspp- mutant background; 1 uM coelenterazine; yellow/blue luminescence ratio against RLUC alone. (In BRET a luciferase serves as donor, and the signal depends on an acceptor being close.)

Assay [3] addresses T3, AtSPS-hRLUC (C-terminally tagged Renilla luciferase fusion of AtSPS, At5g20280) (Arabidopsis thaliana) (UniProt Q94BT0).
T3 sequence: T1 sequence
Nature of the assay: FRET or BRET; in planta BRET in double transgenic Arabidopsis seedlings of the Atsps- mutant background; 1 uM coelenterazine; yellow/blue luminescence ratio against RLUC alone.

The target in assay [4] is T4, YN-tagged AtSPS (At5g20280) (Arabidopsis thaliana) (UniProt Q94BT0).
T4 sequence: T1 sequence
Description: split reporter; BiFC with YN and YC fragments of YFP in transiently transformed N. tabacum leaf epidermal cells; YFP fluorescence 48 h to 65 h after infiltration.

Results are given in words; binding and its absence hold for the method and conditions named. For some of these results: Binding seen in cells or lysates may run through a third protein. Some binding calls cover weakened binding; strength is not graded here. Where a sequence is shown, tags or fusion partners need not be part of it.

For the molecule “AtSPP (At2g35840), sucrose phosphate phosphatase, fused to the GAL4 activation domain (from UniProt Q9SJ66 1-422) (enzyme)”, in assay [1], the binding entry is recorded as “binds”.
Regarding “AtSPP-YFP (C-terminally YFP-tagged AtSPP, At2g35840) (from UniProt Q9SJ66 1-422) (enzyme)”, the binding result in assay [2] and in assay [3] was “binds” in each case.
Turning to “YC-tagged AtSPP2 (At2g35840) (from UniProt Q9SJ66 1-422) (enzyme)”, the binding result in assay [4] is “binds”.

B1: YC-tagged AtSPP1 (At1g51420) (enzyme, UniProt Q9C8J4 1-423)
chain: MERLTSPPRLMIVSDLDETMVDHHKDPENLALLRFNSLWEDAYRHDSLLVFSTGRAQTMYKKLRKEKPLLTPDVIITSVGTEIAYGNSMVPDDNWVEILNKKWDRGIVQEETSKFPELTLQGETEQRPHKLSFNIDKSKVKAVTKELSPRLEKRGVDVKFIFSGGNAFDVLAKGGGKGQALAYLLKKLKTEGKLPINTLACGDSGNDTELFTIPNVYGVMVSNAQEELLEWYAENAKDNANIIHASERCAGGITQAIGHFKLGPNLSPRDVSDFLECKADNVNPGHEVVKFFLFYERWRRGEVENCTTYTSSLKASCHPSGVFVHPSGAEKSLRDTIDELGKYYGDKKGKKFRVWTDQVLATDTTPGTWIVKLDKWEQTGDERKCCTTTVKFTSKEGEGFVWEHVQQIWSEETEIKDDSNWII
Regarding B1, in assay [4], the binding result is reported as “binds”.

B2: YC-tagged AtSPP4(3b) (At3g52340) (enzyme, UniProt Q93XN8 1-423)
chain: MERLISHPPLMIVSDLDHTMVDHQDHENLSLLRFNSLWEYAYRRDSLLVFSTARSPVLYKELRKEKPLLTPDIIITSIGTEIAFGNSMVPDHAWVESLNSCKWNREIVLEETSKFPELTLQPKTEQRLHKVSFYIDEGKGEALTKELSQLLEKRGLDVKIIYSWGKNVDVIPRGAGKGEALEYLLKKLQAEGIFPVNTLACGDSEHDAELFSIPDVHGVMVSNSQEELLKWRSENALNNLKVIHSTERCADGIIQAIGHFNLGPDLSPRDVSEFLDRKMDNVNPGHEVVRFYLFYERLRRGEIKNYETYIASFKDSCLHAAVLFHPSGAEKSLRDTIDELKKCYGDKRGKKFWVWVDQVLVTDTIPGKWIVKFDKWEQCEDESQCCKTTVEFTSKGGDLVWEKVKQIWSEESKVKDDNSSWIL
Turning to B2, in assay [4], the binding entry was “binds”.

B3: YC-tagged AtSPP3(3a) (At3g54270) (enzyme, UniProt Q93WU4 1-425)
chain: MDRLEGPPRLILVADLDCTLVDHDDPENNDLLRFNALWEAHYRHDSLLVYCTGRSFSSYSSLRKKRPLLTPDIAVTSVGSEIVYGGGESTVSDVVWTARLDYKWNRDIVVEETLKFPKLEPQPDKSQEEHKVSFFVGREDAVEIMKVLPGILEERGVDVKLVYSNGYAFDVLPRGAGKQGALTYLLDKLDIEGKQPSNTLVCGDSGNDAELFNISDVYGVMVSNSHEELLQWYEENAKDNPKIFHASERCGAGMIEAIQRFNLGPNVSPRDVMDTENFHGESLNPAHEVVQFYLFYERWRCGEVEKSDKYLQNLKSLSSPLGIFVHPSGVEKPIHEWIDEMENLYGDGKEKKFRIWLDNVTSSHISSDTWLAKFVKHELSEGKVRSCSTKVLLSYKEEKQRLTWMHIHQSWLDESSSDDQEKWIF
As to B3, in assay [4], the binding result is given as “binds”.
